Reference: the supplement of paper PMC10849652
Some of the results follow.

Protein sequences, listed by entry. Tags and fused reporters are not part of them. Lines headed by an entry give the natural chain unless they say otherwise; changes in a name come on top.
UniProt Q8WUJ0: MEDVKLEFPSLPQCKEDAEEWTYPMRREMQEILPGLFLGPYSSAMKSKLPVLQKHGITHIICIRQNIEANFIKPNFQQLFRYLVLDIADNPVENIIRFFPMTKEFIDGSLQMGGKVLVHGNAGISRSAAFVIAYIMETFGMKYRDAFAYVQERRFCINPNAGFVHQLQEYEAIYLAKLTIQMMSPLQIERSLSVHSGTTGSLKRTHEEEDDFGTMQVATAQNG
UniProt Q9H6P5: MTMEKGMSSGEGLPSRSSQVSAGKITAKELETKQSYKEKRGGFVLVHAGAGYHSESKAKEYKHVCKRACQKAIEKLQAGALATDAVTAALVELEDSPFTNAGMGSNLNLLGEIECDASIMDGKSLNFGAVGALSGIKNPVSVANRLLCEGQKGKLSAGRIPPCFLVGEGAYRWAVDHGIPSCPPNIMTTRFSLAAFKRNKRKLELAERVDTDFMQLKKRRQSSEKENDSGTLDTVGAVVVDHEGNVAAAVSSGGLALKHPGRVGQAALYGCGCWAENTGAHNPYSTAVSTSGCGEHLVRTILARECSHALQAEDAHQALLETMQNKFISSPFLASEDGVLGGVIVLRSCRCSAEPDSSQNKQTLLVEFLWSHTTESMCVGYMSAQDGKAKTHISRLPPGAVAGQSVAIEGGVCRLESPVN
UniProt Q8NBK3: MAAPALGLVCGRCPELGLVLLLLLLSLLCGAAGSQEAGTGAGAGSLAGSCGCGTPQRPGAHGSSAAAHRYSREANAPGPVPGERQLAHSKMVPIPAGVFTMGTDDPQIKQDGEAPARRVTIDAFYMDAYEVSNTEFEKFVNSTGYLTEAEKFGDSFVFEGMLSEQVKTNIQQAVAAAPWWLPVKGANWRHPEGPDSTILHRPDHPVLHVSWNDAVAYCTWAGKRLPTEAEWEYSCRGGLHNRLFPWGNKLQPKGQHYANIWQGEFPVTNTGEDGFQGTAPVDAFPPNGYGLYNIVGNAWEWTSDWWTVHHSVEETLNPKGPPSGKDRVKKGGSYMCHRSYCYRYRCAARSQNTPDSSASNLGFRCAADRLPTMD
UniProt Q9Y6J9: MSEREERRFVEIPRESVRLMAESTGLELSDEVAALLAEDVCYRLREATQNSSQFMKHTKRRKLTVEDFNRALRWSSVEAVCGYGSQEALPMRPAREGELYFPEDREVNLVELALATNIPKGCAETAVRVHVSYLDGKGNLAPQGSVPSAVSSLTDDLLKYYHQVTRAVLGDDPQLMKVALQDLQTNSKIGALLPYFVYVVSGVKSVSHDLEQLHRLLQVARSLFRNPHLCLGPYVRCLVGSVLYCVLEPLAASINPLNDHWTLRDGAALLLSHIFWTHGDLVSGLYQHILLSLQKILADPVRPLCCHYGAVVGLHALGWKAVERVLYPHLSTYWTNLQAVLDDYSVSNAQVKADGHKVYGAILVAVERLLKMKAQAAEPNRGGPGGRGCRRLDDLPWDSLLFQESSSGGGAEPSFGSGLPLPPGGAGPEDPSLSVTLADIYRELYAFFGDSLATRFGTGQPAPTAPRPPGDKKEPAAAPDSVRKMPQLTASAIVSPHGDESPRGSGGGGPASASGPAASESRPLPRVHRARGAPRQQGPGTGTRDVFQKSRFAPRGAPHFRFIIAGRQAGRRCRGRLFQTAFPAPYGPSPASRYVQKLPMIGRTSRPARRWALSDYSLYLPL
UniProt Q15022: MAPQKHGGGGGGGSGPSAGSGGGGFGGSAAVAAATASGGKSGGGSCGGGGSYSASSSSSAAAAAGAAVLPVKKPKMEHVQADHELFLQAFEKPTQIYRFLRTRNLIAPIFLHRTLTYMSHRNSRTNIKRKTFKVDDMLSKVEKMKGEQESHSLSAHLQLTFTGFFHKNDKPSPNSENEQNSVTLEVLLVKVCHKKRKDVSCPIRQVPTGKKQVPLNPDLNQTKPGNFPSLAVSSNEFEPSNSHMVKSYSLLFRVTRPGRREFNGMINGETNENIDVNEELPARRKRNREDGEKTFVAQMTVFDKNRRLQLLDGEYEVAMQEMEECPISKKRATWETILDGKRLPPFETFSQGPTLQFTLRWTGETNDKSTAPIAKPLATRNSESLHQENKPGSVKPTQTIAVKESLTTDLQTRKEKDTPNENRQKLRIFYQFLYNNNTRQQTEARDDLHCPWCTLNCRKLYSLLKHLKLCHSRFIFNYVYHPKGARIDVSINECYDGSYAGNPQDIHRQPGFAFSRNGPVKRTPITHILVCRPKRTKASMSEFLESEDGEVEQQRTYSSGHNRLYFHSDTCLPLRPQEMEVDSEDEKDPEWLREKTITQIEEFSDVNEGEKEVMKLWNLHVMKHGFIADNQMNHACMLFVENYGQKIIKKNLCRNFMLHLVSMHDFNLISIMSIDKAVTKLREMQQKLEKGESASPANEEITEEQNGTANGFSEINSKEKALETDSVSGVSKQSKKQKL
UniProt Q9NRP7: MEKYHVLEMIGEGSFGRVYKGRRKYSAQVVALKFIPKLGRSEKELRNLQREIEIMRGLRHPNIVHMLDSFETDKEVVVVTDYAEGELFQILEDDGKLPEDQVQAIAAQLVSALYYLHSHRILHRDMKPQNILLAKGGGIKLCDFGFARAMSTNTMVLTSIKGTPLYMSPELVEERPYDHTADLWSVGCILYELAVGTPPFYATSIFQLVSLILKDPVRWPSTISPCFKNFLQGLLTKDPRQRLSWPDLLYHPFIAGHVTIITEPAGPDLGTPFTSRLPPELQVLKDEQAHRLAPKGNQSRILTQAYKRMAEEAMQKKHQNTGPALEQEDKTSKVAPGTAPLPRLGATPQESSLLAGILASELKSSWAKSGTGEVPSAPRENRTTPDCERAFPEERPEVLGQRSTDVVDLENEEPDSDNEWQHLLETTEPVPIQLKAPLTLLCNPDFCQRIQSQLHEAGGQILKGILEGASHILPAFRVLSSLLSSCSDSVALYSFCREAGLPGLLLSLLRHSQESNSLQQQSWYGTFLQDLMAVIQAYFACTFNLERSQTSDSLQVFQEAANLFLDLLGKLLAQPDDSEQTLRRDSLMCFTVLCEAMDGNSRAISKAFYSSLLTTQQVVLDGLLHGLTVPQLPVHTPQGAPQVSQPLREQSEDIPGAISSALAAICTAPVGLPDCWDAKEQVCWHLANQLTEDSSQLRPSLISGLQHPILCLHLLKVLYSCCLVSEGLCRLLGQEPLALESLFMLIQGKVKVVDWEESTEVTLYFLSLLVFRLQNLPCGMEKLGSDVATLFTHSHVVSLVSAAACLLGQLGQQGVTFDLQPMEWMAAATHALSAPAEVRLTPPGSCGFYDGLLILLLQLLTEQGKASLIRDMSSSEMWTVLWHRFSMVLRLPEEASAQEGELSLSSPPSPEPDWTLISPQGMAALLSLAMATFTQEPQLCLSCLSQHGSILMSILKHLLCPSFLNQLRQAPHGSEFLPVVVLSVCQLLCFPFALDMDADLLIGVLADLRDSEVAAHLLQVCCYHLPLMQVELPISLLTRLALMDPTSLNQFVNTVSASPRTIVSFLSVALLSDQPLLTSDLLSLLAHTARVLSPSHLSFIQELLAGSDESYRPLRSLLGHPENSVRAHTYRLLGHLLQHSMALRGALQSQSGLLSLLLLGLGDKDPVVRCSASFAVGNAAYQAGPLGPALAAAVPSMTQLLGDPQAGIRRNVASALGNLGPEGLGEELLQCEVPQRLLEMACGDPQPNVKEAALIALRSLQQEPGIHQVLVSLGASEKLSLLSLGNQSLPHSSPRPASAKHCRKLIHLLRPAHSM
UniProt P08842: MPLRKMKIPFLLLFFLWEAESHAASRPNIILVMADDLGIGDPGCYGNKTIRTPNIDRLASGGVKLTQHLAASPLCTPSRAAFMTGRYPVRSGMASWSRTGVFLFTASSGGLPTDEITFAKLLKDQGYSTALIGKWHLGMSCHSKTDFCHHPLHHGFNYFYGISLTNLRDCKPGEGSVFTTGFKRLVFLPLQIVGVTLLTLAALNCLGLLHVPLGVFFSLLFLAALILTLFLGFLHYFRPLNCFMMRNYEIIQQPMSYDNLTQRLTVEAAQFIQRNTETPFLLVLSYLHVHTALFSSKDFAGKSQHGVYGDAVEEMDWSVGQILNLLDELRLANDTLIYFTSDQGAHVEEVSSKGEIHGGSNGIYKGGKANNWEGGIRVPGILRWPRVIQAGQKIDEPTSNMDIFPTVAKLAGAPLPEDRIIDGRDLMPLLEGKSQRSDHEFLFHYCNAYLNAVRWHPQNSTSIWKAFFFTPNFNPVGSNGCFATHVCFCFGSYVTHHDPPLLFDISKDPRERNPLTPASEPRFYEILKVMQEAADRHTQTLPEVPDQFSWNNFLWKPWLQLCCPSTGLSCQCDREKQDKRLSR
UniProt O15056: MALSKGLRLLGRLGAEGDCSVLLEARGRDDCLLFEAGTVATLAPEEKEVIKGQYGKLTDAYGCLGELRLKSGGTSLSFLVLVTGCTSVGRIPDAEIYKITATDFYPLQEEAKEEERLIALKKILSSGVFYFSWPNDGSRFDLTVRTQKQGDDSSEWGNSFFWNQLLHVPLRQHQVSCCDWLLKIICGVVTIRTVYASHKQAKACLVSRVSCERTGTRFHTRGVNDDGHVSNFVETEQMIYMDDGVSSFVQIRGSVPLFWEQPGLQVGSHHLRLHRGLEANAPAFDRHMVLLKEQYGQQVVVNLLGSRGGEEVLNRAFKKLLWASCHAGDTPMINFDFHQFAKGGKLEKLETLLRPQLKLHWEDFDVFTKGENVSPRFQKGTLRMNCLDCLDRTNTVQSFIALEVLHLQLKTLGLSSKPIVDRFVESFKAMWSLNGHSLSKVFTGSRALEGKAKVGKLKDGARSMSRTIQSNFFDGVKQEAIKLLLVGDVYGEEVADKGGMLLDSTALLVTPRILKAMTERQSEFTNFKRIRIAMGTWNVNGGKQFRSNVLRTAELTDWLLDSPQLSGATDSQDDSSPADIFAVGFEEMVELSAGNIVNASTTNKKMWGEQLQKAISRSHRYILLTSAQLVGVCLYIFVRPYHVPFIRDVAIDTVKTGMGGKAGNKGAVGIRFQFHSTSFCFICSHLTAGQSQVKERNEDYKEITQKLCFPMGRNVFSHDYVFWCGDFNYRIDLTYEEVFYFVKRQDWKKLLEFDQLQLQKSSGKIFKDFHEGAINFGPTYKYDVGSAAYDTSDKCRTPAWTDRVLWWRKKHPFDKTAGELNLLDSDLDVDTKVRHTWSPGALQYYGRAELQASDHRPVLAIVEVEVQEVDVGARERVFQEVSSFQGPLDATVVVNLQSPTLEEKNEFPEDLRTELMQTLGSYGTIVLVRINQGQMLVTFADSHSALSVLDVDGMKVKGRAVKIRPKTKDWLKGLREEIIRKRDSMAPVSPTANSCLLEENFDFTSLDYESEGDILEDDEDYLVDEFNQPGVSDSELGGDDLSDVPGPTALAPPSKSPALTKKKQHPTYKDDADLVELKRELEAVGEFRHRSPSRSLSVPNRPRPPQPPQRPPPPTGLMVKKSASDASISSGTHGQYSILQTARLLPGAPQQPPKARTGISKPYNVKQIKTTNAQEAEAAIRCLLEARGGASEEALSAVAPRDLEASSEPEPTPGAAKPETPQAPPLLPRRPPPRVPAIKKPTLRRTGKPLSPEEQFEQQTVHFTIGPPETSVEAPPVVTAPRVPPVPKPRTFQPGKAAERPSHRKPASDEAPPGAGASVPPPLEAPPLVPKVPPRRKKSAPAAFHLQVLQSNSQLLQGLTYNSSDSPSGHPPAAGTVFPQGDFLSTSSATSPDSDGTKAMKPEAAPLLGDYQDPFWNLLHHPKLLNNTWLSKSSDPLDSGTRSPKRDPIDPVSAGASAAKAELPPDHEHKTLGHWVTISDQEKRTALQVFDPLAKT
UniProt Q15542, whole entry, looked up: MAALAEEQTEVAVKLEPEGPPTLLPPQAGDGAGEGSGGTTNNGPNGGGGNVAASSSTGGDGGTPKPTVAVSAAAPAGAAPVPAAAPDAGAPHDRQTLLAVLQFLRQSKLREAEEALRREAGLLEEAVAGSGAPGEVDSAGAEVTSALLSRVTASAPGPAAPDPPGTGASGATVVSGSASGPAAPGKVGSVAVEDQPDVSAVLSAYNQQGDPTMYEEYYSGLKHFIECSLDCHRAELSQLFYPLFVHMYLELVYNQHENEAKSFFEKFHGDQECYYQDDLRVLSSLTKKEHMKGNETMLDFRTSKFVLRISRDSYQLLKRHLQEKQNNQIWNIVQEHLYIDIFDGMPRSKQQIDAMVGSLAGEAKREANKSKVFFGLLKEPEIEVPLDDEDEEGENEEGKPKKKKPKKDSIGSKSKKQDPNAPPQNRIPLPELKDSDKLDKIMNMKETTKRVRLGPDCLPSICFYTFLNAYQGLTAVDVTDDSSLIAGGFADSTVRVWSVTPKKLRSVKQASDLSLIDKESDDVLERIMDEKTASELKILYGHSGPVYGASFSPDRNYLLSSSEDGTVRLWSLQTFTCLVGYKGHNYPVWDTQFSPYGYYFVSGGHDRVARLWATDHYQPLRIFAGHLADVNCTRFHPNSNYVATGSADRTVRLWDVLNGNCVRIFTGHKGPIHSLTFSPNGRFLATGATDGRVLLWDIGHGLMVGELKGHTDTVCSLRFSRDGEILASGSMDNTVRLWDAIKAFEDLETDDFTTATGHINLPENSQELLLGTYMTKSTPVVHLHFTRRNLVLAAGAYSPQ

How the values were obtained:
Test in all cases: log2 fold change, soluble protein after heating vs DMSO (PISA); higher = thermal stabilisation; K562 cells, 10 uM, 30 min; active = over 0.2 and 3.5 SD of the protein, either way, in both replicates (recomputed)
[1] = compound: CCn1c(C(=O)N(C2CC2)C2CC2)cc2c3c(ncn3C)c(Nc3cc(C)n(C)n3)nc21
Outline: (§1)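 Quantification of soluble protein used TMTpro 16plex LC-MS/MS, with channel sums equalised. Samples were the supernatant after 21,000xg for 90 min of pooled aliquots from K562 cells (2×10^6 cells/mL) treated with 10 μM compound for 30 min, heated for 3 min over 48°C-58°C, and extracted in PBS with 0.5% NP-40 at 4°C. Values, from duplicates, describe thermal stability against control samples on a log2 fold-change scale.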

[2] = compound: CCn1cc(-c2ccnc3[nH]c(-c4cccc(CN(C)C)c4)cc23)c(-c2ccc(NC(=O)N(C)C)cc2)n1
Outline: as §1

[3] = compound: CN1C2=C(C3=C1C(=O)N(N=C3)CC4=CC(=CC=C4)N)SC(=C2)S(=O)C
Outline: as §1

[4] = compound: CN1CCC(CNc2ccc3ncc(-c4cccc(OC(F)(F)F)c4)n3n2)CC1
Outline: as §1

saracatinib = compound: CN1CCN(CCOc2cc(OC3CCOCC3)c3c(Nc4c(Cl)ccc5c4OCO5)ncnc3c2)CC1 [saracatinib]
Outline: as §1

Tubastatin A = compound: CN1CCc2c(c3ccccc3n2Cc2ccc(C(=O)NO)cc2)C1 [Tubastatin A]
Outline: as §1

[5] = compound: CNC(=O)C1=CC=CC=C1NC2=NC(=NC=C2Cl)NC3=C(C=C(C=C3)N4CCOCC4)OC
Outline: as §1

[6] = compound: CNc1nc(-c2ccc3c(N)n[nH]c3c2)cc(N2C[C@@H](C(=O)NC3CCCCC3)CC[C@H]2C)n1
Outline: as §1

[7] = compound: CC[C@H](C)N1C=C(C2=C(C=C(C=C21)C3=CN=C(C=C3)N4CCNCC4)C(=O)NCC5=C(C=C(NC5=O)C)C)C
Outline: as §1

epoxomicin = compound: CC[C@H](C)[C@@H](C(=O)N[C@@H]([C@@H](C)O)C(=O)N[C@@H](CC(C)C)C(=O)[C@]1(CO1)C)NC(=O)[C@H]([C@@H](C)CC)N(C)C(=O)C [epoxomicin]
Outline: as §1

volasertib = compound: CC[C@@H]1C(=O)N(C)c2cnc(Nc3ccc(C(=O)N[C@H]4CC[C@H](N5CCN(CC6CC6)CC5)CC4)cc3OC)nc2N1C(C)C [volasertib]
Outline: as §1

[8] = compound: CN(C)CC(=O)Nc1ccc2[nH]c(=O)c3ccccc3c2c1
Outline: as §1

sotrastaurin = compound: CN1CCN(c2nc(C3=C(c4c[nH]c5ccccc45)C(=O)NC3=O)c3ccccc3n2)CC1 [sotrastaurin]
Outline: as §1

defactinib = compound: CNC(=O)c1ccc(Nc2ncc(C(F)(F)F)c(NCc3nccnc3N(C)S(C)(=O)=O)n2)cc1 [defactinib]
Outline: as §1

[9] = compound: COC(=O)[C@H](CCSC)NC(=O)C1=C(C=C(C=C1)NC[C@H](CS)N)C2=CC=CC=C2
Outline: as §1

[10] = compound: CC[C@@H]1C(=O)N(C)c2cnc(Nc3ccc(C(=O)NC4CCN(C)CC4)cc3OC)nc2N1C1CCCC1
Outline: as §1

rucaparib = compound: CNCc1ccc(-c2[nH]c3cc(F)cc4c3c2CCNC4=O)cc1 [rucaparib]
Outline: as §1

encorafenib = compound: COC(=O)N[C@@H](C)CNc1nccc(-c2cn(C(C)C)nc2-c2cc(Cl)cc(NS(C)(=O)=O)c2F)n1 [encorafenib]
Outline: as §1

rosiglitazone = compound: CN(CCOC1=CC=C(C=C1)C[C@H]2C(=O)NC(=O)S2)C3=CC=CC=N3 (racemic) [rosiglitazone]
Outline: as §1

Measured: log2 fold change

STYX (UniProt Q8WUJ0)
inactive: [1] 0.013 | [2] -0.281 | [3] -0.072 | [4] -0.312 | saracatinib 0.119 | Tubastatin A 0.245 | [5] -0.057 | [6] -0.075

TASP1 (UniProt Q9H6P5)
inactive: [7] -0.016 | epoxomicin -0.186 | [1] -0.33 | [5] -0.351

SUMF1 isoform 3 (UniProt Q8NBK3)
inactive: volasertib -0.017 | [7] 0.106 | epoxomicin 0.017 | [1] -0.008 | [2] 0.013 | [8] -0.243 | [3] -0.026 | [4] 0.11 | saracatinib -0.066 | sotrastaurin 0.033 | Tubastatin A 0.058 | [5] -0.013 | defactinib 0.209 | [6] -0.116 | [9] 0.003

STK38L (UniProt Q9Y2H1)
inactive: [10] 0.071 | [7] -0.011 | epoxomicin 0.071 | [2] -0.015 | [8] -0.045 | [3] -0.029 | [4] 0.016 | saracatinib 0.103 | sotrastaurin 0.035 | Tubastatin A -0.067 | [5] 0.002 | defactinib -0.048 | rucaparib -0.052 | [6] 0.024 | encorafenib 0.004 | [9] -0.073

TAF6L (UniProt Q9Y6J9)
inactive: [7] 0.118 | [2] -0.04 | [3] 0.081 | [4] -0.126 | saracatinib 0.148 | sotrastaurin -0.2 | Tubastatin A -0.012 | [5] -0.044 | [6] 0.035
active: volasertib -0.537

Fetched one by one from above (2):
TAF6L (UniProt Q9Y6J9)
inactive: [7] 0.118 | [2] -0.04 | [3] 0.081 | [4] -0.126 | saracatinib 0.148 | sotrastaurin -0.2 | Tubastatin A -0.012 | [5] -0.044 | [6] 0.035
active: volasertib -0.537

STYX (UniProt Q8WUJ0)
inactive: [1] 0.013 | [2] -0.281 | [3] -0.072 | [4] -0.312 | saracatinib 0.119 | Tubastatin A 0.245 | [5] -0.057 | [6] -0.075

Remaining list, next part:

SUZ12 (UniProt Q15022)
inactive: volasertib 0.126 | [7] 0.004 | [3] 0.021 | saracatinib -0.02 | [6] -0.016

SUGP2 (UniProt Q8IX01)
inactive: [7] -0.123 | epoxomicin -0.108 | sotrastaurin 0.011

STK36 (UniProt Q9NRP7)
inactive: volasertib 0.015 | [7] -0.135 | [1] 0.161 | [2] 0.168 | rosiglitazone 0.021 | [3] 0.018 | [4] -0.472 | saracatinib -0.035 | [5] -0.438 | [6] 0.104

STS (UniProt P08842)
inactive: [10] 0.158 | volasertib 0.192 | rosiglitazone 0.116 | rucaparib -0.151 | encorafenib -0.047

STK35 (UniProt Q8TDR2)
inactive: volasertib 0 | [7] -0.095 | [3] -0.152 | saracatinib -0.248 | [6] 0.023

SYNJ2 (UniProt O15056)
inactive: [7] 0.06 | epoxomicin -0.05 | [1] -0.122 | [2] -0.011 | [8] 0.045 | rosiglitazone -0.037 | [3] -0.243 | [4] -0.098 | saracatinib 0.371 | sotrastaurin 0.065 | [5] 0.051 | defactinib -0.007 | [6] 0.363 | [9] -0.095

TAF5 (UniProt Q15542)
inactive: epoxomicin 0.055 | [1] -0.147 | [2] -0.242 | [8] 0.491 | [4] -0.14 | [5] 0.416 | defactinib -0.163 | [9] -0.019

SYNE1 (UniProt Q8NF91)
inactive: [10] -0.01 | [7] -0.048 | epoxomicin 0.047 | [2] -0.113 | [8] 0.042 | [3] 0.051 | [4] -0.208 | saracatinib -0.054 | sotrastaurin -0.086 | Tubastatin A 0.193 | [5] -0.14 | defactinib -0.092 | rucaparib -0.039 | [6] 0.045 | encorafenib -0.101 | [9] 0.076

SUGT1 isoform 2 (UniProt Q9Y2Z0)
inactive: [10] -0.075 | volasertib -0.01 | [1] 0.117 | [8] -0.123 | rosiglitazone 0.049 | [3] -0.109 | saracatinib 0.036 | Tubastatin A -0.002 | [5] 0.059 | defactinib -0.038 | rucaparib 0.079 | [6] -0.191 | encorafenib -0.125 | [9] -0.021
